From the supplement of paper PMC8728848
The other results are listed elsewhere or left out.

Key:
Experiment in all cases: glycan array binding signal (z-score within array); higher = stronger binding
Settings in all cases: glycan notation: IUPAC condensed, linker removed
[1] = biological target: Gal(b1-3)Gal(b1-4)GlcNAc(b1-2)Man(a1-3)[Gal(b1-3)Gal(b1-4)GlcNAc(b1-2)Man(a1-6)]Man(b1-4)GlcNAc(b1-4)GlcNAc
Method in brief: (§1)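 Columns mapping to the same glycan were averaged after glycan names were converted to IUPAC-condensed notation. The data come from 3228 arrays in the Consortium for Functional Glycomics database, limited to those with an available protein sequence. Binding is reported as a within-array Z-score averaged across arrays of one protein sequence and across linkers.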

Gal(b1-3)GalNAc = biological target: Gal(b1-3)GalNAc
Method in brief: as §1

[2] = biological target: Gal(b1-3)GalNAc(a1-3)[Fuc(a1-2)]Gal(b1-4)Glc
Method in brief: as §1

[3] = biological target: Gal(b1-3)GalNAc(a1-3)[Fuc(a1-2)]Gal(b1-4)GlcNAc
Method in brief: as §1

Gal(b1-3)GalNAc(b1-3)Gal = biological target: Gal(b1-3)GalNAc(b1-3)Gal
Method in brief: as §1

[4] = biological target: Gal(b1-3)GalNAc(b1-3)Gal(a1-4)Gal(b1-4)Glc
Method in brief: as §1

[5] = biological target: Gal(b1-3)GalNAc(b1-4)Gal(b1-4)Glc
Method in brief: as §1

[6] = biological target: Gal(b1-3)GalNAc(b1-4)[Neu5Ac(a2-3)]Gal(b1-4)Glc
Method in brief: as §1

Gal(b1-3)GlcNAc = biological target: Gal(b1-3)GlcNAc
Method in brief: as §1

[7] = biological target: Gal(b1-3)GlcNAc(a1-3)Gal(b1-4)GlcNAc
Method in brief: as §1

[8] = biological target: Gal(b1-3)GlcNAc(a1-6)Gal(b1-4)GlcNAc
Method in brief: as §1

Gal(b1-3)GlcNAc(b1-2)Man = biological target: Gal(b1-3)GlcNAc(b1-2)Man
Method in brief: as §1

[9] = biological target: Gal(b1-3)GlcNAc(b1-2)Man(a1-3)[Gal(b1-3)GlcNAc(b1-2)Man(a1-6)]Man(b1-4)GlcNAc(b1-4)GlcNAc
Method in brief: as §1

[10] = biological target: Gal(b1-3)GlcNAc(b1-2)Man(a1-3)[Gal(b1-3)GlcNAc(b1-2)Man(a1-6)]Man(b1-4)GlcNAc(b1-4)[Fuc(a1-6)]GlcNAc
Method in brief: as §1

[11] = biological target: Gal(b1-3)GlcNAc(b1-2)Man(a1-3)[GlcNAc(b1-4)][Gal(b1-3)GlcNAc(b1-2)Man(a1-6)]Man(b1-4)GlcNAc(b1-4)GlcNAc
Method in brief: as §1

[12] = biological target: Gal(b1-3)GlcNAc(b1-2)[Gal(b1-3)GlcNAc(b1-6)]Man(a1-6)[Gal(b1-3)GlcNAc(b1-2)Man(a1-3)]Man(b1-4)GlcNAc(b1-4)GlcNAc
Method in brief: as §1

[13] = biological target: Gal(b1-3)GlcNAc(b1-3)Gal(b1-3)GlcNAc
Method in brief: as §1

[14] = biological target: Gal(b1-3)GlcNAc(b1-3)Gal(b1-4)Glc
Method in brief: as §1

[15] = biological target: Gal(b1-3)GlcNAc(b1-3)Gal(b1-4)GlcNAc
Method in brief: as §1

[16] = biological target: Gal(b1-3)GlcNAc(b1-3)Gal(b1-4)GlcNAc(b1-2)Man(a1-3)[Gal(b1-3)GlcNAc(b1-3)Gal(b1-4)GlcNAc(b1-2)Man(a1-6)]Man(b1-4)GlcNAc(b1-4)GlcNAc
Method in brief: as §1

[17] = biological target: Gal(b1-3)GlcNAc(b1-3)Gal(b1-4)GlcNAc(b1-2)[Gal(b1-3)GlcNAc(b1-3)Gal(b1-4)GlcNAc(b1-6)]Man(a1-6)[Gal(b1-3)GlcNAc(b1-3)Gal(b1-4)GlcNAc(b1-2)Man(a1-3)]Man(b1-4)GlcNAc(b1-4)[Fuc(a1-6)]GlcNAc
Method in brief: as §1

[18] = biological target: Gal(b1-3)GlcNAc(b1-3)Gal(b1-4)GlcNAc(b1-3)Gal(b1-4)GlcNAc(b1-2)[Gal(b1-3)GlcNAc(b1-3)Gal(b1-4)GlcNAc(b1-3)Gal(b1-4)GlcNAc(b1-6)]Man(a1-6)[Gal(b1-3)GlcNAc(b1-3)Gal(b1-4)GlcNAc(b1-3)Gal(b1-4)GlcNAc(b1-2)Man(a1-3)]Man(b1-4)GlcNAc(b1-4)[Fuc(a1-6)]GlcNAc
Method in brief: as §1

[19] = biological target: Gal(b1-3)GlcNAc(b1-3)Gal(b1-4)GlcNAc(b1-6)[Gal(b1-3)GlcNAc(b1-3)]Gal(b1-4)Glc
Method in brief: as §1

[20] = biological target: Gal(b1-3)GlcNAc(b1-3)Gal(b1-4)[Fuc(a1-3)]GlcNAc
Method in brief: as §1

[21] = biological target: Gal(b1-3)GlcNAc(b1-3)Gal(b1-4)[Fuc(a1-3)]GlcNAc(b1-6)[Gal(b1-3)GlcNAc(b1-3)]Gal(b1-4)Glc
Method in brief: as §1

[22] = biological target: Gal(b1-3)GlcNAc(b1-3)GalNAc
Method in brief: as §1

B1: NK2 (Sus scrofa) (peptide)
chain: KILRGVCKKIMRTFLRRISKDILTGKK
glycan array binding signal (z-score) [1]: -0.253
glycan array binding signal (z-score) (Gal(b1-3)GalNAc): -0.35
glycan array binding signal (z-score) [2]: -0.889
glycan array binding signal (z-score) [3]: 0.709
glycan array binding signal (z-score) (Gal(b1-3)GalNAc(b1-3)Gal): -0.853
glycan array binding signal (z-score) [4]: 1.13
glycan array binding signal (z-score) [5]: 0.625
glycan array binding signal (z-score) [6]: -0.531
glycan array binding signal (z-score) (Gal(b1-3)GlcNAc): -0.745
glycan array binding signal (z-score) [7]: 0.076
glycan array binding signal (z-score) [8]: 0.363
glycan array binding signal (z-score) (Gal(b1-3)GlcNAc(b1-2)Man): -0.625
glycan array binding signal (z-score) [9]: 0.159
glycan array binding signal (z-score) [10]: 0.131
glycan array binding signal (z-score) [11]: 1.74
glycan array binding signal (z-score) [12]: 0.125
glycan array binding signal (z-score) [13]: -0.226
glycan array binding signal (z-score) [14]: -0.675
glycan array binding signal (z-score) [15]: -0.572
glycan array binding signal (z-score) [16]: -2.72
glycan array binding signal (z-score) [17]: -0.369
glycan array binding signal (z-score) [18]: 0.747
glycan array binding signal (z-score) [19]: -0.037
glycan array binding signal (z-score) [20]: 0.446
glycan array binding signal (z-score) [21]: -0.036
glycan array binding signal (z-score) [22]: -0.33
